Results are given in words; binding and its absence hold for the method and conditions named. Some entries that bind do so weakly or less than the wild type.
Molecular target: T1, Limbin/EVC-2 (human) (UniProt Q86UK5)
T1 sequence (looked up): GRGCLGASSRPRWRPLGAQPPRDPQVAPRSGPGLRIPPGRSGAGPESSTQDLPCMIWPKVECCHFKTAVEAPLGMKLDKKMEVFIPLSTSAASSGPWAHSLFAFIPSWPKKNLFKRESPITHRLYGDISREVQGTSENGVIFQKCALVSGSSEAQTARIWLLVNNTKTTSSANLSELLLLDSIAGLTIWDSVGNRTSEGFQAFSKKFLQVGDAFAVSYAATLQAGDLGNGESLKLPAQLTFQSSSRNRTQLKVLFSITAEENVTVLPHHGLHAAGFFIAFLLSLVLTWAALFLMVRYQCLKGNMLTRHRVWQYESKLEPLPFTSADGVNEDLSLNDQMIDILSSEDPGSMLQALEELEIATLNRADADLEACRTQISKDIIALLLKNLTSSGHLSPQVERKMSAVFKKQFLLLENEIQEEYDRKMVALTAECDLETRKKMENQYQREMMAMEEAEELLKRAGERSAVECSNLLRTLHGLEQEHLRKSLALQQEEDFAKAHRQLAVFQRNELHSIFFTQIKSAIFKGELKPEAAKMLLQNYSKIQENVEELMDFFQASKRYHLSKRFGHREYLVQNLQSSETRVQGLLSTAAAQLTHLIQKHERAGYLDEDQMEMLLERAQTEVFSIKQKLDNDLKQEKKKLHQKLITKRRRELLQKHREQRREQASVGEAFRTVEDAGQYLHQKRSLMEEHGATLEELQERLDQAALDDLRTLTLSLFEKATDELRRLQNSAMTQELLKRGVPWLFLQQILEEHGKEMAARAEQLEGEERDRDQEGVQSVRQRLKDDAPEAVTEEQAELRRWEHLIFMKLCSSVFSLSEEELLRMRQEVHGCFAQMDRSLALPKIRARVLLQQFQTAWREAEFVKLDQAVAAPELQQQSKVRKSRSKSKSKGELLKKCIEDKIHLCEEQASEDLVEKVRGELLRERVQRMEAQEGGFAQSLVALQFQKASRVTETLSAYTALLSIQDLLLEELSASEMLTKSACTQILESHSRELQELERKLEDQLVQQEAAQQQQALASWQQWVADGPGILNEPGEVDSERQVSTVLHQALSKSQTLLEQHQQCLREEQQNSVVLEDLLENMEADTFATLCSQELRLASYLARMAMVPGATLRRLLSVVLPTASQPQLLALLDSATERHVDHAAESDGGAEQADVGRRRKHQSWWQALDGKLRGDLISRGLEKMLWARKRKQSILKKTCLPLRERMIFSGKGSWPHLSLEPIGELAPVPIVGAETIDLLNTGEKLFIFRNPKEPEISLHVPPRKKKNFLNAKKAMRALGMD
Test: antigen identified by probing a human fetal brain cDNA expression library with the scFv; flow cytometry on MSCs

B1: recombinant scFv TMSC3 (scFv)
scFv: ALTQPSSVSANLGGTVEITCSGGSGSYGWFQQKSPGSAPVTVIYESNKRPSDIPSRFSGSKSGSTGTLTITGVQAEDEAVYFCGSRDSSGSAYAFATGTTLTVLGQSSRSSTVTLDESGGGLQAPGGALSLVCKASGFTFSSYCMQWVRQAPGKGLEFVAGIDDDGSWTAYGAAVKGRATILRDNGQSTVRLQLNNLRAEDTATYYCAKTAGGSYYGCENIDAWGHGTEVIVSSTSGQAGQHHHHHHGAYPYDVPDYAS
- binding: binds

From US20100062038A1
